Out of some 360,000 compounds screened, about 10,000 (2.8%) were called active. This list was built around the results that the source calls inconclusive (neither active nor inactive); the mix of calls is not that of the screen. Calls come from the whole dose curve; as a rule, active = well fitted inhibition curve with a large enough effect; inconclusive = small, poorly fitted or top-dose-only effect; inactive = flat fitted curve, though single readings scatter. Potencies beside an inconclusive call are fits to weak or partial responses and may not hold up.
biological target: Serine/threonine-protein kinase PLK1 (Homo sapiens) (UniProt P53350); test: qHTS for Inhibitors of PLK1-PDB (polo-like kinase 1 - polo-box domain): Primary Screen; conditions: Plk1 PBD binding of FITC phosphopeptide, fluorescence polarization; note: nearly all actives have a fitted effect of over 65% in size; for max response, negative = inhibition: series mostly up to about 57 µM
% is set by controls: 0 for no effect and ±100 for the full control effect; potency is the fitted concentration of half-maximal effect.

The chains behind the UniProt entries cited, without tags or fusion partners.
UniProt P53350, whole entry, looked up: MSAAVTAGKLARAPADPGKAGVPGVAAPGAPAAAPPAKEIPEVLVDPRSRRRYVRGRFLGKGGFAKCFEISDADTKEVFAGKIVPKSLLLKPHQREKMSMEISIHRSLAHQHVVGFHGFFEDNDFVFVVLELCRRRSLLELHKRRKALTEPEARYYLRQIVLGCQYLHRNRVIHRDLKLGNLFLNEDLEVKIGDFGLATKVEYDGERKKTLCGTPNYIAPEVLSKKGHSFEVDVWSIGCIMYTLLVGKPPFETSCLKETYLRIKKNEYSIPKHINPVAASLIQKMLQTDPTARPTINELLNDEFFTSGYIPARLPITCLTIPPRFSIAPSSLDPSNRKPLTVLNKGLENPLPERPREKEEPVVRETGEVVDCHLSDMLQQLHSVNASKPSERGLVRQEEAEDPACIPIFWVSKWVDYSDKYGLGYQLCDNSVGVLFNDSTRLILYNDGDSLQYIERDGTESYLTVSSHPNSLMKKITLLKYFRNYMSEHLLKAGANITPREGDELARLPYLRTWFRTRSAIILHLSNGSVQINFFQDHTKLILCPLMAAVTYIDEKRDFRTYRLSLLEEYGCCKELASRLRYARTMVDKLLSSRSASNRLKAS

Compound	Potency	max response, negative = inhibition
CC(C)n1nnnc1C(c1ccc(F)cc1)N1CCN(C2CCCC2)CC1 (stereo not drawn)	inconclusive: 23.8 µM [inhibitor, single point]	–
COc1ccc(C(=O)NC(=S)NNC(=O)CCc2ccccc2)cc1	inconclusive: 26.7 µM [inhibitor, partial curve]	–
CCOc1ccc(NC(=O)CCC(=O)NNS(=O)(=O)c2ccccc2[N+](=O)[O-])cc1	inconclusive: 23.8 µM [inhibitor, partial curve]	–
CC(C)c1ccc(CNn2cnnc2)cc1	active: 26.7 µM	–
O=C(Cn1cc2c(n1)CCCCC2)NC1CCCCCC1	inconclusive: 37.7 µM [inhibitor, single point]	–
Cc1csc(NC(=O)COCC(=O)O)c1-c1nc2ccccc2s1	inconclusive: 37.7 µM [inhibitor, single point]	–
CC(C)(C)OC(=O)N/N=C\c1ccc(OC(=O)c2ccco2)cc1	active: 23.8 µM	–
COc1ccc(N2CCN(C(=O)CCS(=O)(=O)c3ccc(OC)cc3)CC2)cc1	–	inactive: 4.21%
CSc1ccccc1NC(=O)C1CC(c2c(F)cccc2Cl)=NO1 (stereo not drawn)	inconclusive: 13.4 µM [inhibitor, partial curve]	–
COc1ccc(S(=O)(=O)n2nc(OC(C)=O)cc2N)cc1	inconclusive: 23.8 µM [inhibitor, single point]	–
COc1ccc(N2C(=O)c3ccccc3NC(=O)C2C(=O)NCc2ccco2)cc1 (stereo not drawn)	–	inactive: -6.3%
Cc1noc(C)c1CSc1nc2ccccc2s1	–	inconclusive: -31.7% [inhibitor]
N#CC(C(=O)NC1CC1)c1nc2ccccc2nc1N1CCCC1 (stereo not drawn)	inconclusive: 37.7 µM [inhibitor, single point]	–
O=C(Nc1cccc([N+](=O)[O-])c1)C(=O)N1CCCCC1	–	inactive: -11.7%
CCOC(=O)c1c(/N=C/C2=C(O)CC(C)(C)CC2=O)sc(C(C)=O)c1C	inconclusive: 21.2 µM [inhibitor, partial curve]	–
CNC(=O)COc1coc(CN2CCN(c3ccccc3OC)CC2)cc1=O	–	inactive: -13.5%
COc1cc(C=NNc2ccc(S(=O)(=O)Nc3ccccc3C(=O)O)cc2[N+](=O)[O-])ccc1O	inconclusive: 21.2 µM [inhibitor, single point]	–
N#Cc1c(/N=C/c2ccco2)oc(-c2ccccc2)c1-c1ccccc1	–	inactive: -1.4%
O=C(O)c1ccc(-c2nc(-c3ccc(Cl)c(Cl)c3)cs2)cc1	active: 26.7 µM	–
CC1CCN(C(=O)c2ccc(NS(=O)(=O)c3cccc4cccnc34)cc2)CC1	–	inactive: 2.68%
COc1ccc([C@H]2[C@H](C(=O)C(C)(C)C)N3N=Cc4ccccc4C3C23C(=O)OC(C)(C)OC3=O)cc1 (stereo partly drawn)	inconclusive: 26.7 µM [inhibitor, single point]	–
CC(=O)Nc1ccc(S(=O)(=O)N2CCC(C(=O)NCCC(=O)NCc3ccccc3)CC2)cc1	inconclusive: 26.7 µM [inhibitor, partial curve]	–
Cc1cc(Cl)ccc1OCC(=O)N1C(C)CCCC1C (stereo not drawn)	–	inactive: -3.07%
CC(=O)CC1(C)OC(N)=C(C#N)C1(C#N)C#N (stereo not drawn)	inconclusive: 26.7 µM [inhibitor, single point]	–
CCC(CC)C(=O)Nc1nnc(SCC(=O)N2CCN(c3ccccc3OC)CC2)s1	inconclusive: 23.8 µM [inhibitor, single point]	–

Compound	Potency	max response, negative = inhibition
Cc1ccc(-c2ccc(CCC(=O)O)n2C(C)C)cc1	inconclusive: 26.7 µM [inhibitor, single point]	–
CCOC(=O)C1=C(C)NC2(O)c3ccccc3C(=O)C12O (stereo not drawn)	inconclusive: 23.8 µM [inhibitor, single point]	–
CC(=O)c1ccc(S(=O)(=O)Nc2ccc(N3CCOCC3)cc2)cc1	inconclusive: 26.7 µM [inhibitor, partial curve]	–
Cc1ccc(-c2[nH]nc3c2C(c2ccc(OC(=O)N4CCOCC4)cc2)C(C#N)=C(N)O3)cc1 (stereo not drawn)	inconclusive: 29.9 µM [inhibitor, single point]	–
N#C/C(=C\c1ccc(-c2ccccc2C(=O)O)o1)c1nc2ccccc2[nH]1	inconclusive: 4.74 µM [inhibitor, full curve]	–
CC1(C(=O)N/N=C/c2ccccc2)CC1(Br)Br (stereo not drawn)	–	inconclusive: -31.1% [inhibitor]
CCCCCCN1C=CC=C/C1=C\C=C(C#N)C#N	inconclusive: 37.7 µM [inhibitor, single point]	–
CCCNS(=O)(=O)c1ccc(CCC(=O)N2CCCCC2)cc1	active: 23.8 µM	–
CCOC(=O)c1sc2nc3c(cc2c1N)COC(C(C)C)C3 (stereo not drawn)	–	inactive: -5.12%
Cc1ccc(CNC(=O)C2c3ccccc3C(=O)N(C)C2c2c[nH]c3ccccc23)o1 (stereo not drawn)	–	inactive: -5.92%
Cc1ccc(NC(=O)CCn2c(=O)oc3ccccc32)cc1	inconclusive: 23.8 µM [inhibitor, single point]	–
CC(C)(C)CN1CCNC[C@H]1Cc1cccc2ccccc12	–	inactive: 1.38%
Cc1ccc(C(=O)N/C(=C\c2cccs2)C(=O)N2CCOCC2)cc1C	–	inactive: 3.94%
O=C(NC(=S)NNS(=O)(=O)c1ccccc1)c1cccnc1	–	inconclusive: -30.5% [inhibitor]
CC1C(=O)Nc2ccccc2N1C(=O)C1CC1 (stereo not drawn)	–	inactive: -7.03%
O=C(O)c1ccccc1C(=O)c1ccc(Sc2ccc(Cl)cc2)c([N+](=O)[O-])c1	inconclusive: 26.7 µM [inhibitor, single point]	–
CCc1ccc(N2C(=O)CN(Cc3ccccc3)C2=S)cc1	–	inactive: -0.692%
O=C(COC(=O)c1ccc(Br)o1)Nc1ncc([N+](=O)[O-])s1	active: 10.6 µM	–
CCOc1ccccc1NC(=O)CSc1nnc(-c2cccnc2)o1	active: 23.8 µM	–
COc1ccccc1OC(=O)Nc1ccc(Cl)cc1	inconclusive: 23.8 µM [inhibitor, partial curve]	–
Cc1cc(OCc2ccc(C(=O)n3cccn3)o2)ccc1Cl	active: 23.8 µM	–
COc1ccc(CN2C(=O)c3ccccc3C2c2nnnn2C(C)C)cc1OC (stereo not drawn)	–	inactive: 1.89%
O=C(Nc1ccc2c(c1)CN(Cc1ccc(CO)o1)CC2)c1ccc(C(F)(F)F)cc1	inconclusive: 37.7 µM [inhibitor, single point]	–
Cc1ccc(CCNC(=O)CS(=O)Cc2nc(-c3cccs3)oc2C)cc1 (stereo not drawn)	inconclusive: 26.7 µM [inhibitor, partial curve]	–
CC(=O)c1cccc(NC2c3ncccc3C(=O)N2Cc2ccco2)c1 (stereo not drawn)	–	inactive: -9.59%

Three entries from above, reformatted.

| Compound | Potency | max response, negative = inhibition |
| --- | --- | --- |
| CC(C)(C)CN1CCNC[C@H]1Cc1cccc2ccccc12 | – | inactive: 1.38% |
| Cc1ccc(C(=O)N/C(=C\c2cccs2)C(=O)N2CCOCC2)cc1C | – | inactive: 3.94% |
| O=C(NC(=S)NNS(=O)(=O)c1ccccc1)c1cccnc1 | – | inconclusive: -30.5% [inhibitor] |

Complete entries, quoted from the list:
CCOc1ccccc1NC(=O)CSc1nnc(-c2cccnc2)o1 in the list: Potency: active: 23.8 µM
N#CC(C(=O)NC1CC1)c1nc2ccccc2nc1N1CCCC1 (stereo not drawn) in the list: Potency: inconclusive: 37.7 µM [inhibitor, single point]
O=C(COC(=O)c1ccc(Br)o1)Nc1ncc([N+](=O)[O-])s1 in the list: Potency: active: 10.6 µM

Following part

Compound	Potency	max response, negative = inhibition
CCOC(=O)n1c(=O)n(Cc2cccc(C)c2)c2ccccc21	active: 11.9 µM	–
Nc1c(-c2ccccc2)sc2ccc3ccccc3[n+]12	inconclusive: 18.9 µM [inhibitor, partial curve]	–
O=c1c2ccccc2c2c(O)nc(-c3ccccc3)n2n1Cc1ccccc1	–	inconclusive: -33% [inhibitor]
O=C(NCc1ccccc1Cl)C(=O)c1cn(CC(=O)N2CCOCC2)c2ccccc12	–	inactive: -22.3%
CC1CC(C)(C)NC(=S)O1 (stereo not drawn)	inconclusive: 29.9 µM [inhibitor, partial curve]	–
Cc1ccc(S(=O)(=O)N2[C@@H](c3cccc(C)c3)C(C(=O)O)=C[C@H]2CC2CCCC2)cc1	inconclusive: 29.9 µM [inhibitor, partial curve]	–
CCOCCCNC(=O)/C(C#N)=C/c1ccc([N+](=O)[O-])o1	inconclusive: 26.7 µM [inhibitor, partial curve]	–
CCCCc1cc(=O)oc2cc(OC3CCCCC3=O)ccc12 (stereo not drawn)	inconclusive: 18.9 µM [inhibitor, single point]	–
CC(=O)c1ccc(N2CCN(C(=O)CNS(=O)(=O)c3ccc4c(c3)OCCCO4)CC2)c(F)c1	–	inconclusive: -31.3% [inhibitor]
Cc1ccccc1NC(=O)c1cc(S(=O)(=O)N2CCOCC2)ccc1F	–	inactive: -7.87%
CCOC(=O)N1C(=O)NC(=O)C1c1ccc(OC)cc1 (stereo not drawn)	–	inactive: -7.3%
CN(C)S(=O)(=O)c1ccc(Cl)c(NC(=O)COC(=O)CCSc2ccccc2)c1	inconclusive: 21.2 µM [inhibitor, partial curve]	–
CCCC(=O)Nc1nnc(SCC(=O)N2CCCCC2)s1	inconclusive: 26.7 µM [inhibitor, single point]	–
CCOc1ccccc1NC(=O)Cc1ccccc1OC	inconclusive: 37.7 µM [inhibitor, single point]	–
COc1ccc(C2=NN(c3nc4ccccc4s3)C(=O)C2)cc1	–	inconclusive: -32.8% [inhibitor]
O=C(COC(=O)c1ccc(O)cc1)Nc1nccs1	–	inactive: -1.48%
O=C(C=Cc1ccccc1)NCCNC(=O)C=Cc1ccccc1	–	inactive: 4.29%
Cc1cc(=O)[nH]c(/N=C(\N)Nc2cccc3ccccc23)n1	–	inactive: -8.99%
COc1cccc(N2CC(C(=O)Nc3nnc(SCC(=O)NCc4ccco4)s3)CC2=O)c1 (stereo not drawn)	inconclusive: 18.9 µM [inhibitor, partial curve]	–
Cn1c(CNC(=O)C(Cc2ccccc2)NC(=O)c2cccc(F)c2)cc(=O)n(C)c1=O (stereo not drawn)	active: 26.7 µM	–
O=S(=O)(Nc1cc(Cl)ccc1-n1cncn1)c1ccccc1Cl	inconclusive: 23.8 µM [inhibitor, partial curve]	–
CCOC(=O)c1cc(CC)sc1/N=C/c1c(O)ccc2ccccc12	inconclusive: 23.8 µM [inhibitor, single point]	–
O=C(Cn1ccc(C(F)(F)F)n1)N/N=C/c1ccc(N2CCOCC2)cc1	inconclusive: 37.7 µM [inhibitor, single point]	–
